# Percent effect of library compounds

Amino acid sequences for entries named in this document (tags omitted).
UniProt P9WNZ1, whole entry: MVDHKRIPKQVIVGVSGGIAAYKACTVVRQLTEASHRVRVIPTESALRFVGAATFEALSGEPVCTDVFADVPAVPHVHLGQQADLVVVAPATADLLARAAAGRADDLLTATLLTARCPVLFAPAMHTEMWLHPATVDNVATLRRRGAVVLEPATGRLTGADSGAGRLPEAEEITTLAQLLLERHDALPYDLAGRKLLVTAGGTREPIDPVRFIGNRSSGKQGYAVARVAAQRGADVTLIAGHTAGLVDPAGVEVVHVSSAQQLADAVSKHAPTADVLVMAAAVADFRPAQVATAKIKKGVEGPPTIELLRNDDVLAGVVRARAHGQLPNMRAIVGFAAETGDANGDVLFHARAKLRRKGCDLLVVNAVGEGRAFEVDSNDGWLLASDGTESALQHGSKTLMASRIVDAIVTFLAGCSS
UniProt P9WFT3, whole entry: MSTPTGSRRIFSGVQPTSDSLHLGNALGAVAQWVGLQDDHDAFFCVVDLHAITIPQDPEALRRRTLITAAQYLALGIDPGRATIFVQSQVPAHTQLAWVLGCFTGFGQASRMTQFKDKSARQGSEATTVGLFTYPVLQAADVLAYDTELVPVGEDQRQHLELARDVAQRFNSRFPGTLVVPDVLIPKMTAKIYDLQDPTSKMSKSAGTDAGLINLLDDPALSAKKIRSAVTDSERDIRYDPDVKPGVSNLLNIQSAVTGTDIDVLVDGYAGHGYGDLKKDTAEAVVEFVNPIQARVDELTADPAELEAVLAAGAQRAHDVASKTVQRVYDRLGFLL
UniProt I6X8D2, whole entry: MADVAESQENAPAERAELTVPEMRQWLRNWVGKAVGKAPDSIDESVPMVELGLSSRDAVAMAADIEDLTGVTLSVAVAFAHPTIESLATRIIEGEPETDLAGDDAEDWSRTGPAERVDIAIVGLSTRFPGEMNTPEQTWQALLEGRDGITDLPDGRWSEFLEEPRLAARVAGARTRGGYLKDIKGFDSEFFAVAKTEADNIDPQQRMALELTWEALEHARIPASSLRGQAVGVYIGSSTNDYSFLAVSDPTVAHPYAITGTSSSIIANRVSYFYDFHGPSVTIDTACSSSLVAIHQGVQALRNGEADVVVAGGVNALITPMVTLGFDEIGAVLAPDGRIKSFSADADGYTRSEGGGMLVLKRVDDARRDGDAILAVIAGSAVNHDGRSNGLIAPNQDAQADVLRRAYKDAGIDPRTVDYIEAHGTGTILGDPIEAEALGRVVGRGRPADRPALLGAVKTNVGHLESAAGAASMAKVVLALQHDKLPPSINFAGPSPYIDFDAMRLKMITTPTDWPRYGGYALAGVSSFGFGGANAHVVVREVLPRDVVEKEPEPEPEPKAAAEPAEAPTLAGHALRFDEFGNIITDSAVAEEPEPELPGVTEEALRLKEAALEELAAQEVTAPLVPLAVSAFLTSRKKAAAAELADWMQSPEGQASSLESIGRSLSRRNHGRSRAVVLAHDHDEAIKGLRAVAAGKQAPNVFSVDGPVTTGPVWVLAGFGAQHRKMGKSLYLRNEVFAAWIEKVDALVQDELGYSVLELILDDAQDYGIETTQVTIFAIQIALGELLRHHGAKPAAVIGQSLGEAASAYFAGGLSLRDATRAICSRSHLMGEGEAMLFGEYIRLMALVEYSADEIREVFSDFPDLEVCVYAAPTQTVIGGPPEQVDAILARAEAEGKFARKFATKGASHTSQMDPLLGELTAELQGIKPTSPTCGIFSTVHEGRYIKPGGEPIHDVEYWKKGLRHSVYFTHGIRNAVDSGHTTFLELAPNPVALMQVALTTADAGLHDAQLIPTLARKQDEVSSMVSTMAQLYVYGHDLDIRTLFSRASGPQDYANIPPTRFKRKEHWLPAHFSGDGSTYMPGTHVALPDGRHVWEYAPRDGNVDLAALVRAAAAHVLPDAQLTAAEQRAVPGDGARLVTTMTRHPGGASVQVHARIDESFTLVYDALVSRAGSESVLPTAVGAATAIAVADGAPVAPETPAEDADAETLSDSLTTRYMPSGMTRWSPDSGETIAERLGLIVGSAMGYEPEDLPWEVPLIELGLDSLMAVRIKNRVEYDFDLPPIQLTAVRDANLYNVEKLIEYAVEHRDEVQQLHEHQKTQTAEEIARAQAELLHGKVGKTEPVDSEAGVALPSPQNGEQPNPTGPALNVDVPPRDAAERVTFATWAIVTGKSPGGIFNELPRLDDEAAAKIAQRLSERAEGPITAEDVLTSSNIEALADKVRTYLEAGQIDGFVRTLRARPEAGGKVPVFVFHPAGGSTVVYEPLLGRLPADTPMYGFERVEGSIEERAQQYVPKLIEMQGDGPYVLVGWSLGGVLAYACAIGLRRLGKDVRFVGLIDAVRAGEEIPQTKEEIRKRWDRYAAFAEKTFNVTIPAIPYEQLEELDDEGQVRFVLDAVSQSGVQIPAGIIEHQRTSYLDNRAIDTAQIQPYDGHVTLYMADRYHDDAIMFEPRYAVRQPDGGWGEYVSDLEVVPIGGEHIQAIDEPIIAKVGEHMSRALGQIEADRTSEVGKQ

The values are deposited in ChEMBL (CHEMBL3988442, “University of Dundee, Small-Polar-MMV Screening Library” (2021)).

CoaBC: 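Enzyme assay of CoaBC with a phosphate dye (Biomol Green) read at 650 nm. Target: Coenzyme A biosynthesis protein CoaBC, Mycobacterium tuberculosis (UniProt P9WNZ1). Concentration: 30 µM. Higher reads as stronger inhibition, judged from the few compounds that gave an IC50. Most strong results did not repeat in a second test. Size under these conditions: about 67,000 compounds, about 40 of them at 50% or above in at least one test.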
MtTrpRS: 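Tryptophan-tRNA ligase, Mycobacterium tuberculosis (UniProt P9WFT3). Enzyme assay of tryptophanyl-tRNA synthetase; the read-out is not stated. Concentration: 10 µM. Direction is not recorded; retested compounds ran higher, which suggests that high means inhibition. Size under these conditions: about 65,000 compounds, about 64 of them at 50% or above in at least one test.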
Pks13 thioesterase: 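Polyketide synthase Pks13, Mycobacterium tuberculosis (UniProt I6X8D2). Enzyme assay of the thioesterase domain of polyketide synthase 13; the read-out is not stated. Tested at 30 µM. Higher reads as stronger inhibition (inferred from which compounds were picked for retests). Of about 67,000 compounds tested this way, about 300 (0.46%) reached 50% or more in at least one test.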

Values are the deposited “Percent Effect”, in %.
The controls that fix the scale are not given in the record; negative values are as filed.
This is an unselected part of the compounds tested.
Two or more numbers in one place are separate tests of the same structure; such repeats can differ widely.
A dash means the value is not listed here; it may have been measured.

| # | structure | CoaBC | MtTrpRS | Pks13 thioesterase |
|---|---|---|---|---|
| 1 | `CC(=O)c1ccc(-c2cnn(CC(=O)Nc3ccnn3C)c2)nc1` | 0.9732 | -3.704 | -6.297 |
| 2 | `Cc1ccc(C(=O)N2C[C@H](NS(C)(=O)=O)[C@@H](C(C)C)C2)cc1F` | -4.087 | 1.826 | -30.28 |
| 3 | `Cc1nn(C)c2nc(C3CC3)c(Cl)c(C(=O)O)c12` | 4.907 | -0.1971 | -1.95 |
| 4 | `c1csc(CN2Cc3nc(CN4CCCC4)oc3C2)c1` | 3.713 | - | 4.919 |
| 5 | `c1cc(-c2cnc(C3CCNCC3)cn2)n[nH]1` | 5.828 | 15.69 | -13.76 |
| 6 | `Cc1cc(CN2CCN(C(c3ccccc3)c3ccccc3)CC2)no1` | 4.37 | -1.338 | -31.2 |
| 7 | `Cc1[nH]ccc1C(=O)N1CCC(c2nnc(Cn3ccnc3)n2C)CC1` | 0.6452 | -0.9046 | -7.397 |
| 8 | `C[C@@H]1CN(C(=O)c2ccccc2F)C[C@]12CCN(CCN(C)C)C2=O` | 0.9412 | -5.307 | -18.34 |
| 9 | `O=C(Cn1cnnn1)NC(c1ccccc1)c1ccc2c(c1)CCCO2` (stereo not drawn) | 2.532 | 10.29 | -12.76 |
| 10 | `CCn1nc(C)c(C(C)NC(=O)c2cnc(N(C)C)nc2C)c1C` (stereo not drawn) | -3.951 | -2.662 | -19.27 |
| 11 | `O=C1COc2cc(C(=O)NS(=O)(=O)c3cccc(Cl)c3)ccc2N1` | 4.563 | -5.834 | -4.982 |
| 12 | `COc1nc2ccccc2cc1CN1CCCC(CNC(C)=O)C1` (stereo not drawn) | 5.983 | -5.068 | - |
| 13 | `CSCc1cccc(S(=O)(=O)N2CCSCC2)c1` | 4.172 | 1.608 | -24.59 |
| 14 | `Cc1ncncc1C(=O)N1CCCC1c1c(C)nn(C)c1Cl` (stereo not drawn) | -2.112 | -4.212 | -0.2967 |
| 15 | `CN(C)CC1CN(Cc2c(Cl)ccc3cccnc23)CCO1` (stereo not drawn) | - | -1.715 | -45.44 |
| 16 | `Cc1cc(CN2CCN(CC(O)c3ccc4c(c3)OCO4)CC2)no1` (stereo not drawn) | 2.362 | -12.15 | -6.484 |
| 17 | `Cn1cc(Cl)cc1C(=O)N1CCCN(Cc2cccs2)CC1` | -1.064 | -3.145 | -5.595 |
| 18 | `CN1CCOC[C@H]1c1nc(-c2ccc(F)cc2F)c[nH]1` | 12.7 and 23.7 | -2.033 | 4.704 |
| 19 | `Cc1ccc(CN2CCOCC3(CCN(Cc4cccs4)C3)C2)o1` (stereo not drawn) | -8.015 | -7.89 | -31.41 |
| 20 | `CCc1ncnc2c1CCN(Cc1ccccn1)CC2` | 7.672 | 5.628 | -27.25 |
| 21 | `Cc1c[nH]c(CN(C)C(=O)CCn2cnc3ccccc32)n1` | - | 1.651 | -21.46 |
| 22 | `COc1cccc2c1OCC(C(=O)NCCc1nc3c(s1)CCC3)C2` (stereo not drawn) | 0.8537 | 2.384 | -21.18 |
| 23 | `CC(=O)Nc1nc(C(=O)NCc2ccc(N3CCCCC3)cc2)cs1` | -1.654 | -5.879 | -0.6307 |
| 24 | `Cc1nn(-c2ccc(C(=O)O)cc2)c2c1C(c1cccs1)SCC(=O)N2` (stereo not drawn) | -1.841 | -5.718 | -42.23 |
| 25 | `Cn1c(C(F)(F)F)nn(CCNC(=O)CSCc2ccccc2)c1=O` | 4.051 | 0.3564 | -13.34 |
| 26 | `CC(=O)N1CCN(c2cncc(C3CCNCC3)n2)CC1` | -12.88 | 12.88 | -7.491 |
| 27 | `CCCc1n[nH]c(C2CN(CCc3cccs3)CCO2)n1` (stereo not drawn) | -6.166 | -0.8518 | -19.36 |
| 28 | `COc1ccc(F)c(CN2CCC3(CCC(=O)N(CC(N)=O)C3)CC2)c1` | -3.125 | -2.842 | -12.38 |
| 29 | `CN(Cc1coc(-c2ccccc2)n1)C1CCCN(c2cccnn2)C1` (stereo not drawn) | 3.143 | 0.2825 | -3.414 |
| 30 | `COCCOCCNC(=O)c1cccc(Cn2nc(C)cc2C)c1` | -0.5102 | 0.2546 | -11.33 |
| 31 | `COC(=O)CC(C1=Cc2ccccc2OC1)c1oc(C)cc(=O)c1O` (stereo not drawn) | -1.781 | -0.5882 | -2.59 |
| 32 | `CCN(CC)c1ccc(-c2nc(-c3cccc(OC)c3OC)no2)cn1` | 3.571 | -0.1776 | -15.83 |
| 33 | `Cc1ccccc1CSCCn1nc2ccccn2c1=O` | 8.462 | -3.987 | -16.13 |
| 34 | `NC(=O)Cn1ccnc1C1CCCN(Cc2ccccc2OC(F)F)C1` (stereo not drawn) | 3.44 | -0.07468 | -10.18 |
| 35 | `CC(C)OCCCN1CCCC(c2nc3ccccc3n2C(C)C)C1` (stereo not drawn) | -13.04 | 5.066 | -47.06 |
| 36 | `Cn1nccc1C(=O)N1CCN(C(=O)C2CCC2)[C@@H]2CS(=O)(=O)C[C@@H]21` | 2.314 | 13.82 | -33.99 |
| 37 | `Cc1ccc(CN(Cc2ncc[nH]2)C2CC(C)(C)NC(C)(C)C2)o1` | -2.421 | - | -23.08 |
| 38 | `CCN1CCN(C(=O)CCn2cccc2)CC1` | 1.266 | 3.749 | 7.855 |
| 39 | `CC(CNC(=O)NCc1ccoc1)N1CCc2sccc2C1` (stereo not drawn) | 3.353 | -0.2154 | -31.7 |
| 40 | `Cc1nc(C)n(CC2CCCCN2CCCS(C)(=O)=O)n1` (stereo not drawn) | 1.467 | -2.897 | -22.29 |
| 41 | `CN1CCC(Cc2noc(-c3cccc(Oc4ncccn4)c3)n2)CC1` | -7.438 | -2.611 | -47.09 |
| 42 | `CC[C@H]1CN(C(=O)c2cccc(-n3cnnc3)n2)CC[C@@]1(C)O` | 0.6361 | -0.4454 | 9.269 |
| 43 | `CCc1[nH]c2c(CNC(=O)C3CNC(=O)C3)cc(C)cc2c1C` (stereo not drawn) | 1.863 | 3.329 | -6.769 |
| 44 | `COC(=O)C(C)(C)NC(=O)C1CC(=O)N(C2CCCC2)C1` (stereo not drawn) | 10.97 | -0.08224 | -27.25 |
| 45 | `N#Cc1cccc(NC(=O)CCn2nc(-c3cccs3)oc2=O)c1` | 7.535 | -10.79 | -9.775 |
| 46 | `OCc1csc(N2CCN(Cc3cccc(F)c3)CC2)n1` | -0.4914 | -3.211 | 0.1277 |
| 47 | `Cc1ccc(N2CCC3(CCN(C(=O)C4CCOC4)CC3)CC2)nn1` (stereo not drawn) | 4.167 | -0.9168 | -33.23 |
| 48 | `O=C(NCC1OCCc2cn(CC3CCOCC3)nc21)c1ccncc1` (stereo not drawn) | -0.5076 | -2.881 | -15.85 |
| 49 | `CCCS(=O)(=O)N1CCN(c2cc(-n3cccc3)nc(C)n2)CC1` | 2.046 | 1.174 | 23.71 |
| 50 | `Cc1nc(CC(=O)N2CCCCC2c2ccn3ccnc3n2)cs1` (stereo not drawn) | 1.389 | 2.592 | -24.02 |
| 51 | `Cc1ccccc1-n1ncc2c(=O)n(CCN3CCCC3)cnc21` | 6.234 | 0.1485 | 6.222 |
| 52 | `CCN(Cc1ccc2c(c1)OCCO2)C(=O)NCc1nc(C)cs1` | 1.026 | -0.8601 | -11.52 |
| 53 | `C1CC(c2noc(C3CC3)n2)CN(CCOCC2CC2)C1` (stereo not drawn) | -4.89 | -3.681 | 5.716 |
| 54 | `O=C(Cc1c[nH]c(=O)[nH]c1=O)N1CCCCC1CCc1ccccc1` (stereo not drawn) | -6.265 | -0.9031 | 0.0271 |
| 55 | `c1cnc(N2CCC3(CCN(Cc4ccncc4)CC3)CC2)nc1` | 9.769 | -1.133 | -14.5 |
| 56 | `CC(=O)N1CCC2(CCN(C(=O)c3ccc(Cl)c(C(F)(F)F)c3)CC2)C1` | 1.416 | 6.616 | -17.51 |
| 57 | `Nc1ccc(-c2cc(O)cc(CCC3CCCCN3)c2)cn1` (stereo not drawn) | 4.733 | -8.753 | -24.04 |
| 58 | `Cc1nc(C(=O)N2CCN(S(C)(=O)=O)CC2)c(-c2cccc(F)c2)s1` | 2.532 | -0.4772 | 12.52 |
| 59 | `CN(C)c1nc(NCCc2ccccn2)ncc1F` | 2.512 | 4.027 | -18.44 |
| 60 | `Fc1cccc(C2(CNC3CCSC3)CCOCC2)c1` (stereo not drawn) | -6.04 | 0.2447 | -2.594 |
| 61 | `OCCN1CCN(Cc2cn(-c3ccccc3)nn2)CC1` | 4.365 | 2.922 | -10.52 |
| 62 | `Cc1cc(CN(C)C(=O)C(c2ccccc2)N2CCSCC2)no1` (stereo not drawn) | 5.372 | 1.521 | -1.567 |
| 63 | `CCN(CCO)Cc1ccc(Br)c2cccnc12` | -0.6711 | -1.55 | 1.761 |
| 64 | `COc1ccccc1[S+]([O-])CC(=O)NCc1cc(F)cc(F)c1` (stereo not drawn) | 8.471 | -3.121 | -1.984 |
| 65 | `CC(C)c1nccn1C(C)C(=O)N1CCN(c2cnccn2)CC1` (stereo not drawn) | 5 | 0.2649 | 14.93 |
| 66 | `CCCN1CCc2nc(SCc3c(C)cc(C)cc3C)[nH]c(=O)c2C1` | 6.131 | 15.88 | 13.26 |
| 67 | `CCNc1ncc(C(=O)NCc2ccc3nsnc3c2)cn1` | 2.554 | -5.439 | -13.44 |
| 68 | `CN1CCN(C(=O)C2CCCN(c3cccnn3)C2)CC1` (stereo not drawn) | 3.163 | 1.681 | -13.23 |